Assay results from PubChem BioAssay AID720504 (National Center for Advancing Translational Sciences (NCATS), 2013).
In all, about 360,000 compounds went through this assay and about 10,000 (2.8%) were called active. This list was built around the results that the source calls inconclusive (neither active nor inactive); the mix of calls is not that of the screen. The call rests on the fitted dose curve; in most records, active means well fitted inhibition curve with a large enough effect; inconclusive means small, poorly fitted or top-dose-only effect; inactive means flat fitted curve, though single readings scatter. A potency beside an inconclusive call is a rough fit, not a confirmed value.

Sequences of proteins named here, by UniProt entry; tags and fusion partners are left off.
UniProt P53350, whole entry, looked up: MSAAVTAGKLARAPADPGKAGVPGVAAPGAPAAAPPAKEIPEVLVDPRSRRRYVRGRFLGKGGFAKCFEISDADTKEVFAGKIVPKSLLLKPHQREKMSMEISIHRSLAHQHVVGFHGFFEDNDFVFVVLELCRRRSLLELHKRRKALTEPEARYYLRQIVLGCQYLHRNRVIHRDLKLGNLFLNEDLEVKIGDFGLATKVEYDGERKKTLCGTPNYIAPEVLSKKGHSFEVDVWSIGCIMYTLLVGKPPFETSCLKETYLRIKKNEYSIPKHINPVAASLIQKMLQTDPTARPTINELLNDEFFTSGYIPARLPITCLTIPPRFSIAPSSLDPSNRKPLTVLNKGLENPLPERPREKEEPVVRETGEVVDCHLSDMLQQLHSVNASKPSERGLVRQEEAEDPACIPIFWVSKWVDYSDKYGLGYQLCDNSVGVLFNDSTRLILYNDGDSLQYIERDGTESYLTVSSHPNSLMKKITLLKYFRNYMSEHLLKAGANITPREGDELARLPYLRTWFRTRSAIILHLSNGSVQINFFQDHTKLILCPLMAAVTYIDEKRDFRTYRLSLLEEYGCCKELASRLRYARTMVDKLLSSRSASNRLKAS

Target: Serine/threonine-protein kinase PLK1 (Homo sapiens) (UniProt P53350)
Test: qHTS for Inhibitors of PLK1-PDB (polo-like kinase 1 - polo-box domain): Primary Screen; further: nearly all actives have a fitted effect of over 65% in size; on max response, negative = inhibition: series mostly up to about 57 µM
Conditions: Plk1 PBD binding of FITC phosphopeptide, fluorescence polarization
On the % scale 0 is the no-effect control and ±100 the full control effect; potency means the concentration at half of the fitted maximal effect.

Structure (SMILES)	Potency	max response, negative = inhibition
CN1CCC2(CC1)N=C(c1ccc(F)cc1)C(=S)N2C(=O)c1ccc(C(C)(C)C)cc1	active: 23.8 µM	
COc1cc(C(=O)O)ccc1OC(C)=O	inconclusive: 23.8 µM [inhibitor, single point]	
Cc1ccc(C(=O)Nc2ccc3ncccc3c2)cc1		inactive: -7.71%
CCc1c(C)nc2ncnn2c1Nc1ccccc1C	inconclusive: 21.2 µM [inhibitor, single point]	
CCOC(=O)c1cn(-c2c(Cl)cccc2Cl)c2cc(Cl)c([N+](=O)[O-])cc2c1=O		inactive: -8.78%
Cc1ccc(-c2ccc(/C=N/N3C(=O)C4C5C=CC(CC5)C4C3=O)o2)c([N+](=O)[O-])c1 (centres undefined)		inactive: -10.5%
O=C1CCCN1CCCNC(=S)Nc1ccc(F)cc1	inconclusive: 21.2 µM [inhibitor, partial curve]	
Fc1ccccc1-c1n[nH]c(=S)n1/N=C/c1c[nH]c2ccccc12	inconclusive: 18.9 µM [inhibitor, partial curve]	
Cc1ccc(N(Cc2cc(=O)[nH]c3ccccc23)C(=O)CCl)c(C)c1	inconclusive: 26.7 µM [inhibitor, single point]	
Cc1ccc(C2=Nc3ccccc3N(C(=O)c3ccccc3)C(C)C2)cc1 (centres undefined)	active: 29.9 µM	
Cc1ccc(C(=O)N/C(=C/c2cccc([N+](=O)[O-])c2)C(=O)NC(C)C)cc1		inconclusive: -33.2% [inhibitor]
COc1ccc(C(CC(=O)N2CCCC(C)C2)c2c(OC)cc(OC)c3c(-c4ccccc4)cc(=O)oc23)cc1 (centres undefined)	inconclusive: 29.9 µM [inhibitor, single point]	
C=CCNC(=O)COC(=O)c1ccc(Sc2nncn2C)c([N+](=O)[O-])c1	inconclusive: 33.6 µM [inhibitor, partial curve]	
N#Cc1ccc(OC(=O)c2cnccn2)cc1	inconclusive: 23.8 µM [inhibitor, single point]	
COCc1ccc(C(=O)N2CCCC(C(=O)c3ccc(Cl)cc3C)C2)o1 (centres undefined)	active: 18.9 µM	
Cc1cc(C)c(S(=O)(=O)N2CCOC2CNC(=O)C(=O)NCCCn2ccnc2)c(C)c1 (centres undefined)		inactive: -1.54%
O=C(O)c1cc(O)c2c(c1)C(=O)c1cccc(O)c1C2=O	inconclusive: 21.2 µM [inhibitor, partial curve]	
O=C(NCc1ccncc1)c1cccc(S(=O)(=O)Nc2ccc(SC(F)F)cc2)c1	inconclusive: 21.2 µM [inhibitor, partial curve]	
Cc1nn(-c2ccccc2)c(C)c1NC(=O)COC(=O)CCOc1ccccc1		inactive: -0.215%
N#CC(C#N)=C1C=CC=CN1/C(=C\c1ccco1)C(=O)c1ccc(Br)cc1	active: 2.99 µM	
Cn1nccc1C(=O)NC(=S)Nc1sc2c(c1C#N)CCCCC2	inconclusive: 29.9 µM [inhibitor, partial curve]	
N#C/C(=C\c1cccc(Cl)c1)C(=O)c1ccccc1	active: 0.844 µM	

Structure (SMILES)	Potency	max response, negative = inhibition
CC(C)(O)C1Cc2cc(/C=C/C(=O)O)c(O)cc2O1 (centres undefined)	active: 2.99 µM	
COc1ccc(C2c3sc(=O)[nH]c3SC3C(=O)N(c4ccccc4)C(=O)C32)cc1 (centres undefined)		inconclusive: -36.2% [inhibitor]
COc1ccc(NC(=O)C2CC(=O)n3cnnc3S2)cc1 (centres undefined)	inconclusive: 29.9 µM [inhibitor, single point]	
O=C1C(c2ccccc2)=NCCN1C(c1ccc(F)cc1)c1nc2ccccc2[nH]1 (centres undefined)		inactive: -0.781%
Cn1c(SCC(=O)c2ccccc2F)nnc1C1CC1	inconclusive: 26.7 µM [inhibitor, single point]	
O=C(O)c1cc(N/N=C/c2ccncc2)ccc1Cl	inconclusive: 37.7 µM [inhibitor, single point]	
O=S(=O)(NCc1cccs1)c1ccccc1Cl	inconclusive: 29.9 µM [inhibitor, partial curve]	
C[C@@H]1CN([C@@H](C)CO)C(=O)CCCn2nncc2CO[C@H]1CN(C)Cc1ccc(-c2ccccc2)cc1	inconclusive: 37.7 µM [inhibitor, single point]	
O=C(CN1CCN(S(=O)(=O)c2ccc(Br)cc2)CC1)N/N=C/c1ccc(Br)s1	active: 23.8 µM	
O=C1Nc2cc(Cl)cnc2N2CCCC12 (centres undefined)	active: 29.9 µM	
Cc1cc(C)cc(NC(=O)COC(=O)CN=C2NS(=O)(=O)c3ccccc32)c1		inactive: -0.693%
CCOC(=O)C1=C(C)N(C[C@@H]2CC[C@@H](Cc3ccc(-c4ccccc4)cc3)O2)C(=O)NC1c1ccc(SCc2ccco2)c([N+](=O)[O-])c1 (some centres undefined)	inconclusive: 16.8 µM [inhibitor, partial curve]	
Cc1ccc(-c2c3c(nc4sc(C(N)=O)c(N)c24)CCCC3)o1	inconclusive: 33.6 µM [inhibitor, single point]	
O=C1/C(=C\c2ccccn2)SC(=S)N1c1ccc(S(=O)(=O)Nc2nccs2)cc1	inconclusive: 23.8 µM [inhibitor, partial curve]	
CS(=O)(=O)N(Cc1nnc(-c2cccs2)o1)c1ccc(Cl)cc1F	active: 11.9 µM	
O=C(O)c1cccc(-n2cccc2/C=N/O)c1	inconclusive: 26.7 µM [inhibitor, partial curve]	
COc1cc(C2/C(=C(\O)c3ccc4c(c3)OCCO4)C(=O)C(=O)N2Cc2ccccc2)ccc1O (centres undefined)		inactive: -17.3%
Cc1ccsc1/C=N/n1c(-c2cc(-c3ccccc3)n[nH]2)n[nH]c1=S		inconclusive: -33% [inhibitor]
Cc1ccc(C)c(S(=O)(=O)N2CC(=O)Nc3ccccc32)c1	active: 23.8 µM	
CN(C(=O)CN1CCN(c2ccccc2F)CC1)C1CCCc2ccccc21 (centres undefined)		inactive: -4.93%
Cc1sc(NC(=O)c2sc3nc4c(C)cccc4cc3c2N)c(C#N)c1C	inconclusive: 18.9 µM [inhibitor, single point]	
CC[C@H](C)/C=C/C1=CC2=C(Cl)C(=O)[C@@]3(C)OC(=O)C(C(=O)[C@H](C)[C@@H](C)O)=C3C2=CO1	active: 5.97 µM	

Fetched one by one from the entries so far:
Structure (SMILES)	Potency	max response, negative = inhibition
CCOC(=O)C1=C(C)N(C[C@@H]2CC[C@@H](Cc3ccc(-c4ccccc4)cc3)O2)C(=O)NC1c1ccc(SCc2ccco2)c([N+](=O)[O-])c1 (some centres undefined)	inconclusive: 16.8 µM [inhibitor, partial curve]	
CS(=O)(=O)N(Cc1nnc(-c2cccs2)o1)c1ccc(Cl)cc1F	active: 11.9 µM	
O=C(O)c1cc(N/N=C/c2ccncc2)ccc1Cl	inconclusive: 37.7 µM [inhibitor, single point]	
